Data taken from article PMC7762955, “Antibiotic binding releases autoinhibition of the TipA multidrug-resistance transcriptional regulator” (The Journal of Biological Chemistry, 2020).
Where a chain is given by its changes, count along the chain named. pKd: −log10 of the molar value. For some assays here: A negative result means that nothing was seen under these conditions. Where a protein sequence is shown, tags need not be part of it. For some assays here: A weaker result is weaker than the reference pair of the same experiment. For some assays here: For at least one entry, the source does not settle the construct or the ends of the probe. For some assays here: At least one verdict rests on a figure or table, not on a statement of the authors.

What was measured:
Experiment in all cases: fluorescence polarization
Mta (Bacillus subtilis) = target: T1, Mta (Bacillus subtilis) (UniProt P71039); conditions: 20 mM Tris-HCl pH 7.5, 200 mM NaCl, 5% (v/v) glycerol, 298 K; 10 nM labeled DNA; recombinant protein; residues 1-257; protein details: His6 (pET-28a); label: 5'-carboxyfluorescein
T1 sequence (looked up): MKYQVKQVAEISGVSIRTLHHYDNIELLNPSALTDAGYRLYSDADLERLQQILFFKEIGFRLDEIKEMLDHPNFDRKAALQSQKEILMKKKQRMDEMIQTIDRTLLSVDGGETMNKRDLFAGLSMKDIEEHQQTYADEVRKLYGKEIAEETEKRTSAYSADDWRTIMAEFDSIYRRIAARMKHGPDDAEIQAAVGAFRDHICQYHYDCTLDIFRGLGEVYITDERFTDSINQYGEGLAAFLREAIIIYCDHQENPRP

[1] = target: T2, MtaH7 (Bacillus subtilis) (UniProt P71039); conditions: 20 mM Tris-HCl pH 7.5, 200 mM NaCl, 5% (v/v) glycerol, 298 K; 10 nM labeled DNA; recombinant protein; residues 1-144; protein details: His6 (pET-28a); label: 5'-carboxyfluorescein
T2 sequence (looked up): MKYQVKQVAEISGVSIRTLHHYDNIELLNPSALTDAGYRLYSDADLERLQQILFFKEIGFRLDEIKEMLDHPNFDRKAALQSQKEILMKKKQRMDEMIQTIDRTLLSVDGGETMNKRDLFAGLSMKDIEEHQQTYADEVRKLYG

MtaN (Bacillus subtilis) = target: T3, MtaN (Bacillus subtilis) (UniProt P71039); conditions: 20 mM Tris-HCl pH 7.5, 200 mM NaCl, 5% (v/v) glycerol, 298 K; 10 nM labeled DNA; recombinant protein; protein details: His6 (pET-28a); label: 5'-carboxyfluorescein
T3 sequence (looked up, limits assumed): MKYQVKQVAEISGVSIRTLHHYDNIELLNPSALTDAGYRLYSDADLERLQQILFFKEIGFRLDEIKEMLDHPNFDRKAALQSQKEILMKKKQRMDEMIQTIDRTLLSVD

[2] = target: T4, SkgA (Caulobacter crescentus) (UniProt B8H172); conditions: 20 mM Tris-HCl pH 7.5, 200 mM NaCl, 5% (v/v) glycerol, 298 K; 10 nM labeled DNA; recombinant protein; residues 1-255; protein details: His6 (pET-28a); label: 5'-carboxyfluorescein
T4 sequence (looked up): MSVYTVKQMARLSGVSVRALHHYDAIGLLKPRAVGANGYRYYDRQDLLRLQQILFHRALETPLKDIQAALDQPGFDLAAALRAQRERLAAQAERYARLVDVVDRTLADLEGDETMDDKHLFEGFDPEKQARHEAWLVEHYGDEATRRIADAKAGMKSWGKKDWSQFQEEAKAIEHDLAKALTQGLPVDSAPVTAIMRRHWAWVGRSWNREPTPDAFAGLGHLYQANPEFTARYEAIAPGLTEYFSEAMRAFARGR

[3] = target: T5, SkgAH7 (Caulobacter crescentus) (UniProt B8H172); conditions: 20 mM Tris-HCl pH 7.5, 200 mM NaCl, 5% (v/v) glycerol, 298 K; 10 nM labeled DNA; recombinant protein; residues 1-141; protein details: His6 (pET-28a); label: 5'-carboxyfluorescein
T5 sequence (looked up): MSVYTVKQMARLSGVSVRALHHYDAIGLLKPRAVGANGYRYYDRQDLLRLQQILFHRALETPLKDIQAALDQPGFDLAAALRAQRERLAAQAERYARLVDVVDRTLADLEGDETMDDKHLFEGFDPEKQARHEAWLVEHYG

[4] = target: T6, SkgAN (Caulobacter crescentus) (UniProt B8H172); conditions: 20 mM Tris-HCl pH 7.5, 200 mM NaCl, 5% (v/v) glycerol, 298 K; 10 nM labeled DNA; recombinant protein; protein details: His6 (pET-28a); label: 5'-carboxyfluorescein
T6 sequence (looked up, limits assumed): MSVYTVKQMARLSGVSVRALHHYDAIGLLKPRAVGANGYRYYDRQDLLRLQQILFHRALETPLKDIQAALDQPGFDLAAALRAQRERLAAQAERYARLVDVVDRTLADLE

[5] = target: T7, TipAL (Streptomyces lividans) (UniProt P0A4T9); conditions: no thiostrepton; 20 mM Tris-HCl pH 7.5, 200 mM NaCl, 5% (v/v) glycerol, 298 K; 10 nM labeled DNA; recombinant protein; residues 1-253; protein details: His6 (pET-28a); label: 5'-carboxyfluorescein
T7 sequence (looked up): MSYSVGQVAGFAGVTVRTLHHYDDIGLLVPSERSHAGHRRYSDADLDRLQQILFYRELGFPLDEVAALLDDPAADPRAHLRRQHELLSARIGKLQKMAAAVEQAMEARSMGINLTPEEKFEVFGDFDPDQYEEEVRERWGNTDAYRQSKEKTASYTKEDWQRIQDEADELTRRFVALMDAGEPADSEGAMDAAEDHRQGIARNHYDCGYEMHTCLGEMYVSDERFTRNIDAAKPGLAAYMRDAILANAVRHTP

[6] = target: T8, TipALCC T15C,E134C (Streptomyces lividans) (UniProt P0A4T9); conditions: no thiostrepton; 20 mM Tris-HCl pH 7.5, 200 mM NaCl, 5% (v/v) glycerol, 298 K; 10 nM labeled DNA; recombinant protein; protein details: His6 (pET-28a); label: 5'-carboxyfluorescein
T8 sequence (looked up, limits assumed): T7 sequence (looked up) with T15C, E134C

Sequence: TTGACCCTAACGTTGCGTGATTGTTT (double strand) [pmta]
- binding result (Mta (Bacillus subtilis)): binds more weakly
- binding result [1]: binds more weakly
- binding result (MtaN (Bacillus subtilis)): binds

Sequence: TTGACCCTCACGCCACGTCAGACCTG (double strand) [pskgA]
- binding result [2]: binds more weakly
- binding result [3]: binds more weakly
- binding result [4]: binds

Sequence: TTGCACCTCACGTCACGTGAGGAGGC (double strand) [ptipA]
- pKd [5]: 6.42
- binding result [6]: no binding
